Reference: patent US6994986B2, “In vitro synthesis of polypeptides by optimizing amino acid metabolism” (The Board of Trustees of the Leland Stanford University, priority 1999, dated 2006)
For at least one compound, name, drawing or mass did not settle the structure.

System: E. coli S30 extract
Assay: Cell-free protein synthesis, pyruvate system (pyruvate / pyruvate oxidase ATP regeneration)
Format: biochemical, Escherichia coli
Procedure: Throughout the examples to follow, two standard methods were used for cell-free protein synthesis. The first uses phosphoenol pyruvate (PEP) and pyruvate kinase to regenerate ATP from ADP. This is termed the PEP system. The second uses pyruvate and pyruvate oxidase to regenerate ATP. This is called the pyruvate system.
T7 RNA polymerase was prepared from the culture of E. coli strain BL21 (pAR1219) according to the slightly modified procedures of Davanloo et al. (1984) Proc. Natl. Acad. Sci. U.S.A. 81: 2035–2039. S30 extract was prepared from wild type E. coli K12 (strain A19) according to the procedures reported earlier (Kim et al., supra.). The standard reaction mixture for the pyruvate system is nearly identical. The PEP is omitted and in its place is added: 33 mM pyruvate, 6 U/ml pyruvate oxidase, 6.7 mM potassium phosphate, and 3.3 mM TPP (thiamine pyrophosphate).
Reactions were conducted for given time periods in a water bath set at 37° C. The amount of synthesized protein was estimated from the measured cold TCA-insoluble radioactivities as described (Kim et al., supra.) Radioactivities of samples were measured in a liquid scintillation counter (Beckman). SDS-PAGE analysis was carried out using a 16% SDS-PAGE gel (NOVEX) with standard molecular weight markers. Expressed proteins were visualized by standard Coomassie Blue staining method.
The standard reaction mixture consists of the following components: 57 mM Hepes-KOH (pH8.2), 1.2 mM ATP, 0.85 mM each of GTP, UTP and CTP, 1 mM DTT, 0.64 mM cAMP, 200 mM potassium glutamate, 80 mM NH4(OAc), 15 mM Mg(OAc)2, […] folinic acid, 6.7 μg/ml plasmid, 33 μg/ml T7RNA polymerase, 500 μM each of 20 unlabeled amino acids and [^14C] leucine (11.0 μM) or [^3H] leucine (1.2 μM), 2% PEG 8000, 32 mM PEP, and 0.24 volume of S30 extract. […]
The amount of synthesized protein was estimated from the measured TCA-insoluble radioactivities as described earlier (Kim et al., 1996a, supra.) Radioactivities of samples were measured in a liquid scintillation counter (Beckman LS3801). […]

## CC(=O)C(=O)O [pyruvate]
CAT, after a one hour incubation
  final amount of synthesized protein relative to the PEP reaction: 50%
hLT, after a 3 hour incubation
  final yield of hLT relative to the conventional reaction using PEP: 1.5 times
hLT, plasmid pK7LT, FIG. 17
  expression level of human lymphotoxin as compared to the PEP system: 150%
